The series in a line: general procedure: solution-phase peptide synthesis; EDC hydrochloride, HOBt hydrate, DIPEA. The following applies: for cyclisation yield: cyclisation step.
The mark [1] stands for this setting: late stage modification step, trifluoroacetate.

In the case of “(3S,6S,9S,12S,E)-6,9-diisopropyl-3-(2-methoxy-2-oxoethyl carbamoyl)-5,8,11-trioxo-1,14-dioxa-4,7,10-triazacycloocta dec-16-en-12-aminium 2,2,2-trifluoroacetate”, the step yield (late stage modification step, TFA salt) amounted to 95%.
As for “(3S,6S,12S,E)-6-isopropyl-3-(2-methoxy-2-oxoethylcarbamoyl)-9,9-dimethyl-5,8,11-trioxo-1,14-dioxa-4,7,10-triazacyclo octadec-16-en-12-aminium 2,2,2-trifluoroacetate”, where the note is “late stage modification step”, the step yield was 71%.
The substance “Methyl 2-((3S,6S,9S,12S, E)-12-(tert-butoxycarbonylamino)-6,9-diisopropyl-5,8,11-trioxo-1,14-dioxa-4,7,10-triazacyclo octadec-16-ene-carboxamido)-acetate” yielded a cyclisation yield of 42%.
Consider “Methyl 2-((3S,6S,12S,E)-12-(tert-butoxycarbonylamino)-6-isopropyl-9,9-dimethyl-5,8,11-trioxo-1,14-dioxa-4,7,10-triaza cyclooctadec-16-enecarboxamido)acetate”, for which the cyclisation yield is given as 52%.
In the case of “N-tert-butoxycarbonyl L-prolyl L-prolyl O-allyl L-seryl L-valyl L-valine methyl ester”, under “coupling step”, the step yield is on record as 93%.
Under “coupling step”, “N-tert-butoxycarbonyl L-prolyl L-prolyl O-allyl L-seryl L-valyl L-valyl O-allyl L-seryl glycine methyl ester” gave a step yield of 73%.
Take “N-tert-butoxycarbonyl L-prolyl L-prolyl O-benzyl L-seryl L-valyl L-valyl glycyl glycine methyl ester”: the step yield (coupling step) is given as 78%.
In the case of “N-tert-butoxycarbonyl O-allyl L-seryl L-valyl L-valyl O-allyl L-seryl glycine methyl ester”, the step yield (coupling step) is given as 89%.
In turn, “N-tert-butoxycarbonyl O-allyl L-seryl α,α-dimethylglycyl L-valyl O-allyl L-seryl glycine methyl ester” returned a step yield (coupling step) of 73%.
The same measure, in the same setting: the result for “N-tert-butoxycarbonyl O-benzyl L-seryl L-valyl L-valyl glycyl glycine methyl ester” reads 78%.
Under setting [1], “O-allyl L-seryl L-valyl L-valyl O-allyl L-seryl glycine methyl ester trifluoroacetate” showed a step yield of 96%.
Still for that read-out and setting: the result for “O-benzyl L-seryl L-valyl glycyl glycine methyl ester trifluoroacetate” reads 92%.
